Laboratory results taken from publication PMC9885530, “Identification of Natural Products Inhibiting SARS-CoV-2 by Targeting Viral Proteases: A Combined in Silico and in Vitro Approach” (Journal of Natural Products, 2023).

Test system: SARS-CoV-2
Experiment: Antiviral assay in Calu-3 cells (spike staining)
Assay type: cell-based
Details: Severe acute respiratory syndrome coronavirus 2, MOI 0.01, 48 h postinfection, read-out: Anti-SARS-CoV-2 activity IC50

CC1=C[C@H](c2c(O)ccc([C@@H]3CC(=O)c4c(O)cc(O)cc4O3)c2O)[C@@H](C(=O)c2ccc(O)cc2O)[C@H](c2ccc(O)cc2O)C1 [Compound 16, kuwanon L]
IC50: > 20 µM
